Literature values as cited in US20060264388A1, “Method for treating liver cancer by intrahepatic administration of nemorubicin” (priority 2003, published 2006).
Some results were stated once for a whole list of compounds, not compound by compound.

Test system: liver metastases
Conditions: hepatic arterial infusion; cited from earlier work

For `O=c1[nH]c(=O)n([C@H]2C[C@H](O)[C@@H](CO)O2)cc1F` [5-fluorodeoxyuridine (FUDR), 5-fluorodeoxyuridine], the response rate is given as “up to 50%”.
